The results in this text go back to ChEMBL document CHEMBL4513141, “CO-ADD screening of NIH (USA) - Clinical Collection” (2021).

The term Inhibition denotes the drop in the measured response relative to a control, in per cent.

The list shows a part of the results. Measured potencies and affinities stand elsewhere.

For this test, the system named is Pseudomonas aeruginosa. Conditions: Concentration 20 uM; ASSAY_TEST Inhibition of Bacterial Growth; detection method Absorption (OD600); MEDIA CAMHB; plate type 384well; NBS; CORNING #3640; time 18 hr.
`CC(O)(CS(=O)(=O)c1ccc(F)cc1)C(=O)Nc1ccc(C#N)c(C(F)(F)F)c1` (stereo not given) [BICALUTAMIDE]: the Inhibition turned out to be 4.08%. The value for `CCOC(=O)c1cncn1[C@H](C)c1ccccc1` [ETOMIDATE] was 14.32%. The value for `CC(COc1ccccc1)N(CCCl)Cc1ccccc1.Cl` (stereo not given) [PHENOXYBENZAMINE HYDROCHLORIDE] was 12.84%; that for `COCCCOc1ccnc(C[S+]([O-])c2nc3ccccc3[nH]2)c1C` (stereo not given) [RABEPRAZOLE] was 18.08%. Turning to `CC(=O)OCC[N+](C)(C)C.[Cl-]` [ACETYLCHOLINE CHLORIDE], the Inhibition amounted to 6.67%. The value for `Cl.FC(F)(F)c1cccc(N2CCNCC2)c1` [N- (3-TRIFLUOROMETHYLPHENYL)PIPERAZINE HYDROCHLORIDE (TFMPP)] was 9.28%; that for `Cc1nnc2n1-c1ccc(Cl)cc1C(c1ccccc1)=NC2` [ALPRAZOLAM] was 52.22%; that for `COc1ccc(C(CN(C)C)C2(O)CCCCC2)cc1.Cl` (stereo not given) [VENLAFAXINE HYDROCHLORIDE] was 11.05%. `CC(C)NCC(O)c1ccc(O)c(O)c1.Cl` (stereo not given) [ISOPROTERENOL HYDROCHLORIDE]: the Inhibition turned out to be 5.9%. In the case of `O=C(O)C(Cl)Cl` [DICHLOROACETIC ACID] it was 15.81%; in that of `CC[N+](C)(C)c1cccc(O)c1.[Cl-]` [EDROPHONIUM CHLORIDE], 11.75%; in that of `Cl.O=C1c2cccc3c2[C@H](CCC3)CN1[C@@H]1CN2CCC1CC2` [PALONOSETRON HYDROCHLORIDE], 10.25%. As for `Cc1c(OCC(F)(F)F)ccnc1C[S+]([O-])c1nc2ccccc2[nH]1` (stereo not given) [LANSOPRAZOLE], the Inhibition is recorded as 11.72%.

Consider `CCOC(=O)C1(c2ccccc2)CCN(CCC(C#N)(c2ccccc2)c2ccccc2)CC1.Cl` [DIPHENOXYLATE HYDROCHLORIDE], for which the Inhibition came to 6.91%. Regarding `CN1C(=O)CN=C(c2ccccc2)c2cc(Cl)ccc21` [DIAZEPAM], the Inhibition came out at 6.74%. In the case of `Br.COc1ccc2c3c1O[C@H]1C[C@@H](O)C=C[C@@]31CCN(C)C2` [GALANTAMINE HYDROBROMIDE] it was 16.54%; in that of `CN1CCC[C@H]1c1cccnc1` [NICOTINE], -4.09%; in that of `CN[C@@H]1C[C@@H](c2ccc(Cl)c(Cl)c2)c2ccccc21.Cl` [INDATRALINE HYDROCHLORIDE], 1.08%.

Turning to `C[C@H](CCC(=O)O)[C@H]1CC[C@H]2[C@@H]3[C@@H](O)C[C@@H]4C[C@H](O)CC[C@]4(C)[C@H]3CC[C@]12C` [URSODIOL], the Inhibition worked out at 8.73%.

For the molecule `CC(C)c1cccc(C(C)C)c1O` [PROPOFOL], the Inhibition is on record as -2.23%. In the case of `CCC(COC(=O)c1cc(OC)c(OC)c(OC)c1)(c1ccccc1)N(C)C.O=C(O)/C=C\C(=O)O` (stereo not given) it was 12.52%; in that of `CC(C)NCC(O)COc1cccc2[nH]ccc12` (stereo not given) [PINDOLOL], 13.32%. The value for `c1ccc(Cn2ccnc2)cc1` was 12.69%. The value for `CC(C)N(CCC(C(N)=O)(c1ccccc1)c1ccccn1)C(C)C.O=P(O)(O)O` (stereo not given) [DISOPYRAMIDE PHOSPHATE] was 5.03%; that for `C[C@]12CC(C=O)=C(O)C[C@@H]1CC[C@@H]1[C@@H]2CC[C@@]2(C)[C@H]1CC[C@]2(C)O` was 6.85%.

`COC(=O)C[C@](O)(CCCC(C)(C)O)C(=O)O[C@@H]1C(OC)=C[C@]23CCCN2CCc2cc4c(cc2[C@H]13)OCO4` [OMACETAXINE MEPESUCCINATE]: the Inhibition was 11.81%. In the case of `C[C@]12CC[C@H](O)CC1=CC[C@@H]1[C@@H]2CC[C@@]2(C)[C@H]1CC[C@]2(C)O` [METHANDRIOL] it was 4.21%.

In the case of `c1ccc2c(c1)Nc1ccccc1S2` [PHENOTHIAZINE], the Inhibition is recorded as 12.74%. In the case of `O=C1Nc2ccc(Cl)cc2C(c2ccccc2Cl)=NC1O` (stereo not given) [LORAZEPAM] it was 7.26%; in that of `CN1CCN(C(=O)O[C@H]2c3nccnc3C(=O)N2c2ccc(Cl)cn2)CC1` [ESZOPICLONE], 5.48%; in that of `CNCCC(Oc1ccc(C(F)(F)F)cc1)c1ccccc1.Cl` (stereo not given) [FLUOXETINE HYDROCHLORIDE], 11.84%. In the case of `CCCN1C[C@H](CSC)C[C@@H]2c3cccc4[nH]cc(c34)C[C@H]21.CS(=O)(=O)O` [PERGOLIDE MESYLATE] it was 7.83%; in that of `CN1CCN2c3ncccc3Cc3ccccc3C2C1` (stereo not given) [MIRTAZAPINE], -7.46%; in that of `NC1=NC(=O)C(c2ccccc2)O1` (stereo not given) [PEMOLINE], 19.66%.

Take `Cl.NCCc1ccc(O)c(O)c1` [DOPAMINE HYDROCHLORIDE]: the Inhibition was 7.35%. The value for `CC[C@]1(O)CC[C@H]2[C@@H]3CCC4=CCCC[C@@H]4[C@H]3CC[C@@]21C` [ETHYLESTRENOL] was 21.56%; that for `COc1cc(-c2ccc(=O)[nH]n2)ccc1OC(F)F` [ZARDAVERINE] was 12.07%. In the case of `C[N+]1(C)CCC(OC(=O)C(O)(c2ccccc2)C2CCCC2)C1.[Br-]` (stereo not given) [GLYCOPYRRONIUM BROMIDE] it was 13.33%; in that of `CNS(=O)(=O)Cc1ccc2[nH]cc(CCN(C)C)c2c1.O=C(O)CCC(=O)O` [SUMATRIPTAN SUCCINATE], 10.2%; in that of `C#C[C@]1(O)CC[C@H]2[C@@H]3CCC4=CC(=O)CC[C@@H]4[C@H]3CC[C@@]21C` [NORETHINDRONE], 4.59%. Consider `CN1C(=O)COc2c(C(=O)NC3CN4CCC3CC4)cc(Cl)cc21.Cl` (stereo not given), for which the Inhibition is 37.41%.

With `CC(NC(C)(C)C)C(=O)c1cccc(Cl)c1.Cl` (stereo not given) [BUPROPION HYDROCHLORIDE], the Inhibition was 9.58%. Regarding `CNCC(O)c1ccc(O)cc1` (stereo not given) [OXEDRINE], the Inhibition stood at 6.75%. In the case of `Br.Br.CN1CC[C@]2(c3cccc(O)c3)Cc3nc4ccccc4cc3C[C@H]2C1.O` it was 13.22%; in that of `CC(C)C(=O)Nc1ccc([N+](=O)[O-])c(C(F)(F)F)c1` [FLUTAMIDE], 6.76%; in that of `Br.COc1ccc2c(c1)[C@]13CCCC[C@@H]1[C@H](C2)N(C)CC3.O` [DEXTROMETHORPHAN HYDROBROMIDE], 17.98%. In the case of `C=C(C)[C@@H]1[C@H]2OC(=O)[C@@H]1[C@]1(O)C[C@H]3O[C@]34C(=O)O[C@H]2[C@]14C.CC(C)(O)[C@@H]1[C@H]2OC(=O)[C@@H]1[C@]1(O)C[C@H]3O[C@]34C(=O)O[C@H]2[C@]14C` it was 33.69%; in that of `CC(=O)CC(c1ccccc1)c1c([O-])c2ccccc2oc1=O.[Na+]` (stereo not given) [WARFARIN SODIUM], 7.36%; in that of `CN(C)CCc1c[nH]c2ccc(Cn3cncn3)cc12.O=C(O)c1ccccc1` [RIZATRIPTAN BENZOATE], 30.78%. The value for `c1ccc2c3c([nH]c2c1)CNCC3` [TRYPTOLINE] was 14.82%.

Take `CCN(CC)CCOC(=O)C(O)(c1ccccc1)c1ccccc1.Cl`: the Inhibition worked out at 12.38%. Consider `Cl.O=C1CC[C@@]2(O)[C@H]3Cc4ccc(O)c5c4[C@@]2(CCN3CC2CC2)[C@H]1O5` [NALTREXONE HYDROCHLORIDE], for which the Inhibition is listed as 15.95%.

As for `CN1CC[C@@]23CCCC[C@@H]2[C@@H]1Cc1ccc(O)cc13.O=C(O)C(O)C(O)C(=O)O`, the Inhibition was found to be 14.64%. `Brc1c(NC2=NCCN2)ccc2nccnc12` [BRIMONIDINE]: the Inhibition turned out to be 1.87%.

Take `CN1CCN(C2=Nc3cc(Cl)ccc3Nc3ccccc32)CC1` [CLOZAPINE]: the Inhibition was 1.5%. In the case of `N=C(NCc1ccc(Cl)cc1)SCCCc1c[nH]cn1` [CLOBENPROPIT] it was 6.44%; in that of `Cc1ccnc2c1NC(=O)c1cccnc1N2C1CC1` [NEVIRAPINE], 42.2%; in that of `NC(=O)OCCCc1ccccc1` [PHENPROBAMATE], 8%. As to `CCCCCNC(=N)N/N=C/c1c[nH]c2ccc(OC)cc12.O=C(O)/C=C\C(=O)O` [TEGASEROD MALEATE], the Inhibition came out at 20.58%. Regarding `COc1cc2c(cc1OC)[C@@]13CCN4CC5=CCO[C@H]6CC(=O)N2[C@H]1[C@H]6[C@H]5C[C@H]43` [BRUCINE], the Inhibition is 5.67%. In the case of `CCCC(C)(COC(N)=O)COC(=O)NC(C)C` (stereo not given) [CARISOPRODOL] it was 10.55%; in that of `Cl.O.Oc1cc2c(cc1O)[C@H]1c3ccccc3CN[C@@H]1CC2`, 31.74%; in that of `C[C@]12CCC(=O)C[C@@H]1CC[C@@H]1[C@@H]2CC[C@@]2(C)[C@H]1CC[C@]2(C)O` [MESTANOLONE], -5.79%. In the case of `CCC1(c2ccc(N)cc2)CCC(=O)NC1=O` (stereo not given) [AMINOGLUTETHIMIDE] it was 14.25%. The value for `Fc1ccc([C@@H]2CCNC[C@H]2COc2ccc3c(c2)OCO3)cc1.O=C(O)/C=C\C(=O)O` was 5.4%; that for `Cc1c(O)c(=O)ccn1C` [DEFERIPRONE] was 6.92%. Consider `C#C[C@]1(OC(C)=O)CC[C@H]2[C@@H]3CCC4=CC(=O)CC[C@@H]4[C@H]3CC[C@@]21C` [NORETHINDRONE ACETATE], for which the Inhibition is recorded as 11.72%. The value for `CC(C)[C@]12O[C@H]1[C@@H]1O[C@]13[C@]1(O[C@H]1C[C@H]1C4=C(CC[C@@]13C)C(=O)OC4)[C@@H]2O` [TRIPTOLIDE] was 24.45%; that for `C[C@]12CCC(=O)C=C1CC[C@@H]1[C@@H]2CC[C@@]2(C)[C@H]1CC[C@]2(C)O` [METHYLTESTOSTERONE] was 14.14%. The value for `C[C@]12Cc3c[nH]nc3C[C@@H]1CC[C@@H]1[C@@H]2CC[C@@]2(C)[C@H]1CC[C@]2(C)O` [STANOZOLOL] was 10.82%.
